# Article PMC4350344
# No constants are given. Whether binding was seen depends on the method and setting. Binding seen in cells or lysates may run through a third protein. Some binding calls cover weakened binding; strength is not graded here.
# B1: sperm-associated antigen 9 (SPAG9/JIP4) (protein, UniProt O60271-1 1-1321)
# chain: MELEDGVVYQEEPGGSGAVMSERVSGLAGSIYREFERLIGRYDEEVVKELMPLVVAVLENLDSVFAQDQEHQVELELLRDDNEQLITQYEREKALRKHAEEKFIEFEDSQEQEKKDLQTRVESLESQTRQLELKAKNYADQISRLEEREAELKKEYNALHQRHTEMIHNYMEHLERTKLHQLSGSDQLESTAHSRIRKERPISLGIFPLPAGDGLLTPDAQKGGETPGSEQWKFQELSQPRSHTSLKVSNSPEPQKAVEQEDELSDVSQGGSKATTPASTANSDVATIPTDTPLKEENEGFVKVTDAPNKSEISKHIEVQVAQETRNVSTGSAENEEKSEVQAIIESTPELDMDKDLSGYKGSSTPTKGIENKAFDRNTESLFEELSSAGSGLIGDVDEGADLLGMGREVENLILENTQLLETKNALNIVKNDLIAKVDELTCEKDVLQGELEAVKQAKLKLEEKNRELEEELRKARAEAEDARQKAKDDDDSDIPTAQRKRFTRVEMARVLMERNQYKERLMELQEAVRWTEMIRASRENPAMQEKKRSSIWQFFSRLFSSSSNTTKKPEPPVNLKYNAPTSHVTPSVKKRSSTLSQLPGDKSKAFDFLSEETEASLASRREQKREQYRQVKAHVQKEDGRVQAFGWSLPQKYKQVTNGQGENKMKNLPVPVYLRPLDEKDTSMKLWCAVGVNLSGGKTRDGGSVVGASVFYKDVAGLDTEGSKQRSASQSSLDKLDQELKEQQKELKNQEELSSLVWICTSTHSATKVLIIDAVQPGNILDSFTVCNSHVLCIASVPGARETDYPAGEDLSESGQVDKASLCGSMTSNSSAETDSLLGGITVVGCSAEGVTGAATSPSTNGASPVMDKPPEMEAENSEVDENVPTAEEATEATEGNAGSAEDTVDISQTGVYTEHVFTDPLGVQIPEDLSPVYQSSNDSDAYKDQISVLPNEQDLVREEAQKMSSLLPTMWLGAQNGCLYVHSSVAQWRKCLHSIKLKDSILSIVHVKGIVLVALADGTLAIFHRGVDGQWDLSNYHLLDLGRPHHSIRCMTVVHDKVWCGYRNKIYVVQPKAMKIEKSFDAHPRKESQVRQLAWVGDGVWVSIRLDSTLRLYHAHTYQHLQDVDIEPYVSKMLGTGKLGFSFVRITALMVSCNRLWVGTGNGVIISIPLTETNKTSGVPGNRPGSVIRVYGDENSDKVTPGTFIPYCSMAHAQLCFHGHRDAVKFFVAVPGQVISPQSSSSGTDLTGDKAGPSAQEPGSQTPLKSMLVISGGEGYIDFRMGDEGGESELLGEDLPLEPSVTKAERSHLIVWQVMYGNE
# What was measured:
# [1] = biological target: protein-kinase-C-related kinase 1 (PRK1/PKN1) (human (endogenous in PC-3M-luc2)) (UniProt Q16512); experiment: co-IP; co-immunoprecipitation of endogenous PRK1 and SPAG9 from PC-3M-luc2 cells, Western blot
# [2] = biological target: protein-kinase-C-related kinase 1 (PRK1/PKN1) (human (endogenous in PC-3M-luc2)) (UniProt Q16512); experiment: co-sedimentation; whole cell lysate on a 40-10 % sucrose gradient (50 mM Tris, 100 mM NaCl), 185.000 g for 16 hours, 17 fractions immunoblotted
binder,measurement,setting,value
B1,binding,[1],binds
same,binding,[2],binds
